In test [1] the target is T1, T25-AtcC (Shewanella oneidensis MR-1) (UniProt Q8EFW9).
T1 sequence: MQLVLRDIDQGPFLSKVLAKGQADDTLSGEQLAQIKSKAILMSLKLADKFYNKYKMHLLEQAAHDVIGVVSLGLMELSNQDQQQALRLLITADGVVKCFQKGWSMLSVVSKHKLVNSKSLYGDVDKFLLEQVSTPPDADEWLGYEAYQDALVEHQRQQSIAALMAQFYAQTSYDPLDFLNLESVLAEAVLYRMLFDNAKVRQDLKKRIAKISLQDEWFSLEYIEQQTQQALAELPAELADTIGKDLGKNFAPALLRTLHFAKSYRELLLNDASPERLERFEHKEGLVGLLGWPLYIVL
The experiment in a line: two-hybrid; bacterial two-hybrid (T18 and T25 domains of B. pertussis adenylate cyclase) in E. coli Bth101, overnight culture at 28 °C with 1 mM IPTG, β-galactosidase activity.

Test [2] addresses T25 domain alone (Bordetella pertussis). The description is as above.

These are yes or no findings as the source states them, for the method shown.

For “T18 domain alone (Bordetella pertussis) (domain or fragment)”, the binding entry in test [1] is listed as “no binding”.

B1: AtcJ-6His (Adaptation to cold protein J, SO_1850) (natural protein, Shewanella oneidensis MR-1, UniProt Q8EFW5 1-94, looked up)
chain: MINHFSVLGIKPSAKEDDIKKAYRRLSNKYHPDKLLGASDEEKEQASQQLERVKKAYEVLSDPKLRNAFIRDFNNVIVTDPNSAMRELWDQFYP
notes: AtcJ (SO_1850) of Shewanella oneidensis MR-1, a 94-amino acid J-domain protein (J-domain 1-73 and a C-terminal extension of 21 amino acids); also called wild-type AtcJ; AtcJ-WT
For the molecule B1, the binding entry in test [2] is “no binding”.

These data come from PMC6715715 (Communications Biology, 2019).
